Laboratory results taken from article PMC9426035.
Results are given in words; binding and its absence hold for the method and conditions named. In cells and extracts the contact can be indirect. Some entries that bind do so weakly or less than the wild type.

The chains behind the UniProt entries cited, without tags or fusion partners.
UniProt Q8NEB9: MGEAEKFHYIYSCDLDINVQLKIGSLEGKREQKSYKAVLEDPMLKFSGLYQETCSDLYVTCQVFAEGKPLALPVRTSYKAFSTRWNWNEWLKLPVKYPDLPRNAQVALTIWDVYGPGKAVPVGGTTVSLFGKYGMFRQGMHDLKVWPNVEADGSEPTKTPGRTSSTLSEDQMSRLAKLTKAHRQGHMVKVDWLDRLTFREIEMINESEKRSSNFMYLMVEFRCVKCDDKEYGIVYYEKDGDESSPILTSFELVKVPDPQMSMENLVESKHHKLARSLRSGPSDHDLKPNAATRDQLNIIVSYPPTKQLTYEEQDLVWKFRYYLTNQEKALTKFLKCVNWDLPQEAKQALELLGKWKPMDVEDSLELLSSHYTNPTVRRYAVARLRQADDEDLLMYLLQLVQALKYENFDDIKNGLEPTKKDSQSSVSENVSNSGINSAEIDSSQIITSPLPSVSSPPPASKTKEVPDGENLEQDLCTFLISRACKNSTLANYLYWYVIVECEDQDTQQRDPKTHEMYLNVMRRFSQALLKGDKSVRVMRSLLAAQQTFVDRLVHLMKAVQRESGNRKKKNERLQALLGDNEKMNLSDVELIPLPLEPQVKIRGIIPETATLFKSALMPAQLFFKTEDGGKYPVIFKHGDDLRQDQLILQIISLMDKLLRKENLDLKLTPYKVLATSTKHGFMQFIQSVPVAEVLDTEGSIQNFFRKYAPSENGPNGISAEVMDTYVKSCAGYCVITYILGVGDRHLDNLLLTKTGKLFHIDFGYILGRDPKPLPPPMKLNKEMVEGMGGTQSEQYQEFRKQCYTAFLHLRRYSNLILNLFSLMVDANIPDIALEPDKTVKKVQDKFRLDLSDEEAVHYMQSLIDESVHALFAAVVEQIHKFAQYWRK
UniProt P63104: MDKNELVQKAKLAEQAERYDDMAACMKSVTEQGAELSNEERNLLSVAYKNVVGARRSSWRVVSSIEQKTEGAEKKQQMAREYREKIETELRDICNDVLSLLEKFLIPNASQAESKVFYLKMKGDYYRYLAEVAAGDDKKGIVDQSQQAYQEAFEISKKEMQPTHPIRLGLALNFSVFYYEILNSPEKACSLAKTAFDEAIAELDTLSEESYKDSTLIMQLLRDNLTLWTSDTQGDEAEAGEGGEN

Target: Vps34 (human) (UniProt Q8NEB9)
Experiment: co-IP; H1299 cells lysed in NP-40 buffer with PMSF; antibody and protein G agarose beads overnight at 4 °C; washed 3 times; western blot; for Fig. 4J with or without GNIP1 overexpression

binding: binds
Substance: 14-3-3ζ (from UniProt P63104 1-245)
